PubChem BioAssay AID1259405 | NCATS, 2018
Here is an unselected part of about 50,000 deposited reagents. About 4,000 of them (8%) were called active. 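Mouse siRNA library applied to hamster cells; one well for each siRNA.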 Entries without a mark were called inactive. Reagents against one gene are numbered here.

Aim: 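Knock-downs that lift recombinant protein yield in hamster ovary cells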 (primary screen)
Cell system: Chinese hamster CHO-K1 ovary cells with stable secreted eGFP expression
Reagents: single siRNA against mouse genes, 0.8 pmol siRNA per well (2 µl of 400 nM stock)
Time to read-out: 3 days
Measurement: 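Per-well intracellular GFP measured by laser scanning cytometry, plus viability from ATP luminescence, each relative to plate median of non-targeting control wells, in %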
Scale: GFP, % of control: higher = more GFP per well, higher productivity; viability (ATP), % of control: higher = more viable cells (more ATP)
Hit rule: 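a knock-down is called active if GFP reaches 120% or more of non-targeting control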

target	siRNA no.	GFP, % of control	viability (ATP), % of control
Zbp1	1	69.8	53
Zbp1	2	84.7	49.4
Zbp1	3	99.6	118
Tent5b	1	127 (active)	60.1
Tent5b	2	83.2	72.2
Tent5b	3	75.1	96.7
Alg3	1	94.1	71
Alg3	2	79.5	81.3
Alg3	3	101	105
Dld	1	68.3	80.8
Dld	2	129 (active)	81.1
Dld	3	59.9	62.1
Rps26	1	29.8	25.3
Rps26	2	36.2	27.2
Rps26	3	95.1	73.9
Adamts1	1	90	67.3
Adamts1	2	116	74
Adamts1	3	92.8	65.6
Ngef	1	57.4	54.8
Ngef	2	92.6	80.4
Ngef	3	149 (active)	57.5
Synb	1	77.7	74.2
Synb	2	111	66.1
Synb	3	83.7	89.3
Asb13	1	99.5	49.8
Asb13	2	74.9	75.4
Asb13	3	74.2	85.4
Zbtb40	1	44	54.2
Zbtb40	2	58.6	60.4
Prkce	1	52	67.9
Prkce	2	54.7	60.7
Prkce	3	42.6	29.4
Maf1	1	71.3	35.8
Maf1	2	186 (active)	91
Maf1	3	88.1	82.1

4 consecutive entries already listed:
target	siRNA no.	GFP, % of control	viability (ATP), % of control
Synb	3	83.7	89.3
Asb13	1	99.5	49.8
Asb13	2	74.9	75.4
Asb13	3	74.2	85.4
